Laboratory results reported in patent publication US20230407265A1, “COMPOSITION AND METHODS FOR 3D CULTURE OF ISLET CELLS” (CITY OF HOPE, priority 2022, published 2023).
At least one structure is not confirmed: it was looked up by name or label, or the drawing left a doubt. Non-standard residues stand in square brackets, D forms with d. Residues, ends and D or L forms follow the SMILES beside them. pGlu = O=C1CC[C@@H](C(=O)O)N1

Assays:
Type in all cases: cell-based
[1] = tested on: human islets; assay: Islet mass recovery after long-term culture; details: 4 weeks in 3D hydrogel with 100 nM gastrin, n=5, P<0.05 vs 4w-Control
[2] = tested on: human islets; assay: Islet viability and morphology assessment (PI/HO or FDA, DTZ staining); details: gastrin 0-600 nN, 3 weeks
Method: Islet cells were stained with 10 μg/mL propidium iodide (PI) (Millipore Sigma, St. Louis, MO, USA) and 10 μg/mL of Hoechst 33342 (HO) (Thermo Fisher Scientific, Waltham, MA) for 5 minutes at room temperature, washed with PBS, then placed on a 6-well plate. The images of PI/HO staining were taken under a IXDP50 Olympus fluorescent microscope with DP74 camera using a 4× objective lens (Olympus America). Viability was determined by the area of PI staining divided by the area of HO staining analyzed by CellSens software. For the experiment with gastrin culture, 0.5 μM Fluorescein diacetate (FDA) solution (Millipore Sigma) was used instead of HO to determine the viable total islets. The viability was determined by the area of PI staining divided by the total islet area analyzed by CellSens software. Islet morphology was evaluated by dithizone (DTZ) staining.

[3] = tested on: human islets; assay: Glucose-stimulated insulin secretion (GSIS) in a static incubation; details: 4w-Gastrin vs 4w-Control and pre-culture
[4] = tested on: human islets; assay: Gene expression measured by RT-PCR; details: 4w-Gastrin vs 4w-Control
[5] = tested on: human islets; assay: Milo-scWestern blot single cell protein expression; details: 4 weeks 3D-hydrogel with gastrin vs fresh preparations
[6] = tested on: human islets; assay: Glucose-stimulated insulin release assay in a perifusion system; details: 500 nmol/L gastrin I in 1:4 diluted hydrogel (1:4_G500) vs 1:4_G0

What does the source list for `CC(C)C[C@H](NC(=O)[C@H](Cc1c[nH]c2ccccc12)NC(=O)CNC(=O)[C@H](Cc1ccc(O)cc1)NC(=O)[C@H](C)NC(=O)[C@H](CCC(=O)O)NC(=O)[C@H](CCC(=O)O)NC(=O)[C@H](CCC(=O)O)NC(=O)[C@H](CCC(=O)O)NC(=O)[C@H](CCC(=O)O)NC(=O)[C@H](CC(C)C)NC(=O)[C@H](Cc1c[nH]c2ccccc12)NC(=O)[C@@H]1CCCN1C(=O)CNC(=O)[C@@H]1CCC(=O)N1)C(=O)N[C@@H](CC(=O)O)C(=O)N[C@@H](Cc1ccccc1)C(N)=O` [gastrin, [Leu15]-gastrin I] ([pGlu]GPWLEEEEEAYGWLDF-NH2)?
islet mass recovery [1]: 73±6%; islet viability in 2D culture [2]: improved; stimulation index [3]: no difference; expression of extracellular matrix genes [4]: did not affect; BBC3 proapoptotic gene expression ([4]; 3D hydrogel, n=5): does not affect; IL1B gene expression ([4]; 3D hydrogel, n=5, P<0.01): further reduces; IL6 gene expression ([4]; 3D hydrogel, n=5, P<0.01): further reduces; IL8 gene expression ([4]; 3D hydrogel, n=5, P<0.01): further reduces; TNF gene expression ([4]; 3D hydrogel, n=5, P<0.01): further reduces; ARX gene expression ([4]; n=5): did not affect; GCG gene expression ([4]; n=5): did not affect; INS gene expression ([4]; n=5): did not affect; MAFA gene expression ([4]; n=5): did not affect; PDX1 gene expression ([4]; n=5): did not affect; SST gene expression ([4]; n=5): did not affect; percentage of glucagon-expressing cells [5]: significantly more; basal insulin release [6]: further lowered; stimulation index [6]: increasing
